From the supplement of paper PMC4604168 (melanoma cell lines)
This is one part of the list. Repeats are few or missing, and single values can be far off.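 Cells were imaged in 1,536-well plates, and nuclei stained with an antibody against cleaved PARP were counted against all DNA-stained nuclei to give the apoptosis fraction. Screening doses were chosen to leave most cells alive, and resting and induced cleaved-PARP levels differ strongly between cell lines.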

Columns and labels:
Assay in all cases: cleaved PARP positive nuclei fraction relative to DMSO control; melanoma cells; higher = more apoptosis
Conditions in all cases: library dose: low library concentration; 72 h
501Mel = tested on: 501Mel
A101D = tested on: A101D
A2058 = tested on: A2058
A375 = tested on: A375
C32 = tested on: C32
CBRC008 = tested on: CBRC008 (line from a melanoma biopsy)
CBRC013 = tested on: CBRC013 (line from a melanoma biopsy)
CBRC014 = tested on: CBRC014 (line from a melanoma biopsy)
CBRC016 = tested on: CBRC016 (line from a melanoma biopsy)
CBRC017 = tested on: CBRC017 (line from a melanoma biopsy)
COLO792 = tested on: COLO792
COLO800 = tested on: COLO800
COLO829 = tested on: COLO829
G361 = tested on: G361
IPC-298 = tested on: IPC-298
IST-MEL1 = tested on: IST-MEL1
LB2518-MEL = tested on: LB2518-MEL
LOXIMVI = tested on: LOXIMVI
MEL-HO = tested on: MEL-HO

| Compound | cleaved PARP positive nuclei fraction (501Mel) [%] | cleaved PARP positive nuclei fraction (A101D) [%] | cleaved PARP positive nuclei fraction (A2058) [%] | cleaved PARP positive nuclei fraction (A375) [%] | cleaved PARP positive nuclei fraction (C32) [%] | cleaved PARP positive nuclei fraction (CBRC008) [%] | cleaved PARP positive nuclei fraction (CBRC013) [%] | cleaved PARP positive nuclei fraction (CBRC014) [%] | cleaved PARP positive nuclei fraction (CBRC016) [%] | cleaved PARP positive nuclei fraction (CBRC017) [%] | cleaved PARP positive nuclei fraction (COLO792) [%] | cleaved PARP positive nuclei fraction (COLO800) [%] | cleaved PARP positive nuclei fraction (COLO829) [%] | cleaved PARP positive nuclei fraction (G361) [%] | cleaved PARP positive nuclei fraction (IPC-298) [%] | cleaved PARP positive nuclei fraction (IST-MEL1) [%] | cleaved PARP positive nuclei fraction (LB2518-MEL) [%] | cleaved PARP positive nuclei fraction (LOXIMVI) [%] | cleaved PARP positive nuclei fraction (MEL-HO) [%] |
| --- | --- | --- | --- | --- | --- | --- | --- | --- | --- | --- | --- | --- | --- | --- | --- | --- | --- | --- | --- |
| COc1ccc(C2=N[C@@H](c3ccc(Cl)cc3)[C@@H](c3ccc(Cl)cc3)N2C(=O)N2CCNC(=O)C2)c(OC(C)C)c1 [Nutlin-3] + CN(C)S(=O)(=O)c1ccc2c(c1)/C(=C/c1cc3c([nH]1)CCCC3)C(=O)N2 [SU6656] (first compound 0.1 µM, partner dose 0.4 µM) | 148 | 264 | 164 | 159 | 36.9 | 71.3 | 107 | 93.2 | 60.5 | 118 | 30.6 | 71.7 | 119 | 88.9 | 46.8 | 89.9 | 115 | 43.3 | 407 |
| Cn1sc(=O)n(Cc2ccccc2)c1=O + C[C@@H]1CCN(C(=O)CC#N)C[C@@H]1N(C)c1ncnc2[nH]ccc12 [CP690550] (first compound 0.4 µM, partner dose 1 µM) | 33.5 | 86.3 | 49.1 | 56.5 | 231 | 93.1 | 121 | 84.7 | 65.9 | 87.5 | 131 | 45.7 | 146 | 131 | 120 | 97.8 | 143 | 74.1 | 59.4 |
| C[C@]1(O)C[C@@H](c2nc(-c3ccc4ccc(-c5ccccc5)nc4c3)c3c(N)nccn32)C1 + Cn1cncc1[C@@](N)(c1ccc(Cl)cc1)c1ccc2c(c1)c(-c1cccc(Cl)c1)cc(=O)n2C [tipifarnib] (first compound 0.4 µM, partner dose 0.01 µM) | 245 | 91.3 | 42.2 | 363 | 78.9 | 57.1 | 158 | 133 | 38.8 | 81.6 | 83.4 | 181 | 101 | 115 | 170 | 443 | 32.4 | 106 | 41.5 |
| NC(=O)c1ccc(N(C(N)=O)c2c(F)cccc2F)nc1-c1ccc(F)cc1F + O=C(O)c1ccc(-c2c[nH]c3ncc(-c4ccccc4)cc23)cc1C1CCCC1 [GSK650394] (first compound 0.4 µM, partner dose 0.16 µM) | 94.1 | 183 | 62.7 | 113 | 82.9 | 217 | 115 | 100 | 82.8 | 135 | 84.5 | 59.2 | 98.6 | 49.9 | 92.8 | 159 | 99.1 | 119 | 64.8 |
| CS(=O)(=O)c1ccc(C(=O)Nc2ccc(Cl)c(-c3ccccn3)c2)c(Cl)c1 [vismodegib] + O=C(CCCCCCC(=O)Nc1ccccc1)NO [vorinostat] (first compound 1 µM, partner dose 0.08 µM) | 102 | 81 | 82.6 | 209 | 169 | 128 | 118 | 178 | 110 | 102 | 100 | 27.6 | 84.5 | 81.6 | 47 | 49.8 | 46.5 | 42.7 | 86.6 |
| CCCCCCCCc1ccc(CCC(N)(CO)CO)cc1 [fingolimod] + C=CCn1c(=O)c2cnc(Nc3ccc(N4CCN(C)CC4)cc3)nc2n1-c1cccc(C(C)(C)O)n1 [MK1775] (first compound 2 µM, partner dose 0.02 µM) | 175 | 67.9 | 90.6 | 649 | 174 | 111 | 49.6 | 107 | 137 | 101 | 73.6 | 33.1 | 73.8 | 53.6 | 95 | 88.3 | 62.7 | 17.8 | 66.1 |
| NC1(c2ccc(-c3nc4ccn5c(=O)[nH]nc5c4cc3-c3ccccc3)cc2)CCC1 + CN(NC(=O)CC(=O)NN(C)C(=S)c1ccccc1)C(=S)c1ccccc1 [STA4783] (first compound 0.4 µM, partner dose 0.006 µM) | 104 | 124 | 46.2 | 5710 | 73.3 | 3580 | 119 | 546 | 142 | 354 | 207 | 239 | 204 | 73.4 | 101 | 58.1 | 160 | 160 | 93.9 |
| CC(=O)O[C@@]12CO[C@@H]1C[C@H](O)[C@@]1(C)C(=O)[C@H](O)C3=C(C)[C@@H](OC(=O)[C@H](O)[C@@H](NC(=O)OC(C)(C)C)c4ccccc4)C[C@@](O)([C@@H](OC(=O)c4ccccc4)[C@H]21)C3(C)C [Docetaxel] + CN(NC(=O)CC(=O)NN(C)C(=S)c1ccccc1)C(=S)c1ccccc1 [STA4783] (first compound 0.0001 µM, partner dose 0.006 µM) | 190 | 138 | 6770 | 12800 | 380 | 1490 | 161 | 549 | 1570 | 264 | 795 | 365 | 369 | 484 | 33 | 159 | 177 | 1120 | 62 |
| NC(=O)c1ccc(N(C(N)=O)c2c(F)cccc2F)nc1-c1ccc(F)cc1F + NCC(=O)Nc1ccc(-n2nc(C(F)(F)F)cc2-c2ccc3c(ccc4ccccc43)c2)cc1 [OSU03012] (first compound 0.4 µM, partner dose 1 µM) | 383 | 94 | 56.8 | 1220 | 50.4 | 110 | 104 | 255 | 88 | 108 | 250 | 129 | 68 | 144 | 96 | 430 | 199 | 121 | 112 |
| Cn1sc(=O)n(Cc2ccccc2)c1=O + O=C(CCCCCCC(=O)Nc1ccccc1)NO [vorinostat] (first compound 0.4 µM, partner dose 0.08 µM) | 103 | 39.4 | 97.3 | 24.8 | 129 | 122 | 98.2 | 94.9 | 89.2 | 86.5 | 71.4 | 42.1 | 74.3 | 20.1 | 95.6 | 58.7 | 88.7 | 59.1 | 227 |
| COc1ccc(C2=N[C@@H](c3ccc(Cl)cc3)[C@@H](c3ccc(Cl)cc3)N2C(=O)N2CCNC(=O)C2)c(OC(C)C)c1 [Nutlin-3] + OCCn1cc(-c2cnc3nnn(Cc4ccc5ncccc5c4)c3n2)cn1 [PF04217903] (first compound 0.1 µM, partner dose 1 µM) | 153 | 156 | 97.5 | 234 | 224 | 51.8 | 67.7 | 84.1 | 63 | 115 | 97.1 | 77.4 | 125 | 66.8 | 44 | 82.8 | 278 | 105 | 166 |
| C[C@@H](N)c1ccc(C(=O)Nc2ccnc3[nH]ccc23)cc1 + COc1cc2c(Oc3ccc4[nH]c(C)cc4c3F)ncnc2cc1OCCCN1CCCC1 [cediranib] (first compound 0.4 µM, partner dose 0.4 µM) | 38.7 | 150 | 76.9 | 104 | 108 | 70.5 | 153 | 88.5 | 108 | 71.9 | 166 | 44 | 62.2 | 93.9 | 119 | 31.3 | 76.6 | 130 | 157 |
| C[C@@H](N)c1ccc(C(=O)Nc2ccnc3[nH]ccc23)cc1 + COc1cc(Nc2ncc(F)c(Nc3ccc4c(n3)NC(=O)C(C)(C)O4)n2)cc(OC)c1OC [Tamatinib] (first compound 0.4 µM, partner dose 0.4 µM) | 102 | 105 | 88.9 | 136 | 101 | 269 | 129 | 104 | 187 | 92.1 | 365 | 63 | 160 | 130 | 115 | 87.8 | 288 | 410 | 98.7 |
| CC(=O)O[C@@]12CO[C@@H]1C[C@H](O)[C@@]1(C)C(=O)[C@H](O)C3=C(C)[C@@H](OC(=O)[C@H](O)[C@@H](NC(=O)OC(C)(C)C)c4ccccc4)C[C@@](O)([C@@H](OC(=O)c4ccccc4)[C@H]21)C3(C)C [Docetaxel] + Cc1cc(N2CCOCC2)cc2[nH]c(-c3c(NC[C@@H](O)c4cccc(Cl)c4)cc[nH]c3=O)nc12 [BMS536924] (first compound 0.0001 µM, partner dose 0.2 µM) | 349 | 58 | 6640 | 5930 | 483 | 386 | 75 | 130 | 292 | 132 | 608 | 308 | 262 | 758 | 69.6 | 253 | 292 | 250 | 325 |
| C[C@@H](N)c1ccc(C(=O)Nc2ccnc3[nH]ccc23)cc1 + OCCn1cc(-c2cnc3nnn(Cc4ccc5ncccc5c4)c3n2)cn1 [PF04217903] (first compound 0.4 µM, partner dose 1 µM) | 78.1 | 132 | 79.9 | 187 | 52.5 | 34.2 | 102 | 139 | 176 | 161 | 124 | 22.7 | 54.7 | 93.3 | 58.1 | 34.5 | 163 | 219 | 43.6 |
| Cn1sc(=O)n(Cc2ccccc2)c1=O + NC(=O)Nc1cc(-c2cccc(F)c2)sc1C(=O)N[C@H]1CCCNC1 [AZD7762] (first compound 0.4 µM, partner dose 0.02 µM) | 73 | 136 | 56.9 | 356 | 195 | 125 | 136 | 105 | 69.7 | 168 | 231 | 103 | 113 | 113 | 254 | 68.9 | 64.1 | 94.3 | 82.9 |
| Cn1cnc2c(F)c(Nc3ccc(Br)cc3Cl)c(C(=O)NOCCO)cc21 [selumetinib] + COc1cc2c(Oc3ccc4[nH]c(C)cc4c3F)ncnc2cc1OCCCN1CCCC1 [cediranib] (first compound 0.015 µM, partner dose 0.4 µM) | 212 | 184 | 51 | 142 | 88.7 | 49.5 | 159 | 80 | 117 | 99.3 | 153 | 59.3 | 59 | 64.8 | 68.1 | 347 | 427 | 102 | 66 |
| Cn1sc(=O)n(Cc2ccccc2)c1=O + Cn1cncc1[C@@](N)(c1ccc(Cl)cc1)c1ccc2c(c1)c(-c1cccc(Cl)c1)cc(=O)n2C [tipifarnib] (first compound 0.4 µM, partner dose 0.01 µM) | 265 | 59.6 | 66 | 217 | 83.6 | 127 | 145 | 97.3 | 72.9 | 64.3 | 38.4 | 153 | 73.2 | 119 | 43.3 | 63.8 | 86.6 | 52 | 127 |
| NC(=O)c1ccc(N(C(N)=O)c2c(F)cccc2F)nc1-c1ccc(F)cc1F + CO[C@@H]1[C@H](N(C)C(=O)c2ccccc2)C[C@H]2O[C@]1(C)n1c3ccccc3c3c4c(c5c6ccccc6n2c5c31)C(=O)NC4 [Midostaurin] (first compound 0.4 µM, partner dose 0.08 µM) | 107 | 93.8 | 171 | 69.5 | 84.2 | 83.8 | 161 | 80.7 | 79.9 | 112 | 44.8 | 248 | 124 | 156 | 64.1 | 102 | 85.7 | 89.9 | 215 |
| C[C@@H](N)c1ccc(C(=O)Nc2ccnc3[nH]ccc23)cc1 + CC1(C)NC(=O)N(c2ccc([N+](=O)[O-])c(C(F)(F)F)c2)C1=O [nilutamide] (first compound 0.4 µM, partner dose 1 µM) | 39.1 | 127 | 98 | 58.5 | 91 | 55.8 | 147 | 90.1 | 84.1 | 93.4 | 136 | 76.9 | 94.8 | 124 | 251 | 79.8 | 230 | 96.1 | 66.1 |

Whole records as entered above. Order of values: cleaved PARP positive nuclei fraction (501Mel) [%]	cleaved PARP positive nuclei fraction (A101D) [%]	cleaved PARP positive nuclei fraction (A2058) [%]	cleaved PARP positive nuclei fraction (A375) [%]	cleaved PARP positive nuclei fraction (C32) [%]	cleaved PARP positive nuclei fraction (CBRC008) [%]	cleaved PARP positive nuclei fraction (CBRC013) [%]	cleaved PARP positive nuclei fraction (CBRC014) [%]	cleaved PARP positive nuclei fraction (CBRC016) [%]	cleaved PARP positive nuclei fraction (CBRC017) [%]	cleaved PARP positive nuclei fraction (COLO792) [%]	cleaved PARP positive nuclei fraction (COLO800) [%]	cleaved PARP positive nuclei fraction (COLO829) [%]	cleaved PARP positive nuclei fraction (G361) [%]	cleaved PARP positive nuclei fraction (IPC-298) [%]	cleaved PARP positive nuclei fraction (IST-MEL1) [%]	cleaved PARP positive nuclei fraction (LB2518-MEL) [%]	cleaved PARP positive nuclei fraction (LOXIMVI) [%]	cleaved PARP positive nuclei fraction (MEL-HO) [%]
CS(=O)(=O)c1ccc(C(=O)Nc2ccc(Cl)c(-c3ccccn3)c2)c(Cl)c1 [vismodegib] + O=C(CCCCCCC(=O)Nc1ccccc1)NO [vorinostat] (first compound 1 µM, partner dose 0.08 µM) is listed as 102	81	82.6	209	169	128	118	178	110	102	100	27.6	84.5	81.6	47	49.8	46.5	42.7	86.6
NC(=O)c1ccc(N(C(N)=O)c2c(F)cccc2F)nc1-c1ccc(F)cc1F + O=C(O)c1ccc(-c2c[nH]c3ncc(-c4ccccc4)cc23)cc1C1CCCC1 [GSK650394] (first compound 0.4 µM, partner dose 0.16 µM) is listed as 94.1	183	62.7	113	82.9	217	115	100	82.8	135	84.5	59.2	98.6	49.9	92.8	159	99.1	119	64.8
